Measured values as given in PMC6153955.
Results are given in words; binding and its absence hold for the method and conditions named. Some results given as binding are weak or reduced against the parent protein; the word gives no strength.

Target: full length FIBCD1 expressed in A549 cells (human) (UniProt Q8N539)
Test: SDS-PAGE and Western blot; lysate of sham- and FIBCD1-transfected A549 cells under reducing and non-reducing conditions, probed with anti-FIBCD1 mAb HG-HYB 12-2

B1: full length FIBCD1 expressed in A549 cells (receptor, UniProt Q8N539 1-461)
chain: MVNDRWKTMGGAAQLEDRPRDKPQRPSCGYVLCTVLLALAVLLAVAVTGAVLFLNHAHAPGTAPPPVVSTGAASANSALVTVERADSSHLSILIDPRCPDLTDSFARLESAQASVLQALTEHQAQPRLVGDQEQELLDTLADQLPRLLARASELQTECMGLRKGHGTLGQGLSALQSEQGRLIQLLSESQGHMAHLVNSVSDILDALQRDRGLGRPRNKADLQRAPARGTRPRGCATGSRPRDCLDVLLSGQQDDGVYSVFPTHYPAGFQVYCDMRTDGGGWTVFQRREDGSVNFFRGWDAYRDGFGRLTGEHWLGLKRIHALTTQAAYELHVDLEDFENGTAYARYGSFGVGLFSVDPEEDGYPLTVADYSGTAGDSLLKHSGMRFTTKDRDSDHSENNCAAFYRGAWWYRNCHTSNLNGQYLRGAHASYADGVEWSSWTGWQYSLKFSEMKIRPVREDR
B1 was tested, and the binding was “binds”.
